Assay results as given in PMC6684615.
These are yes or no findings as the source states them, for the method shown. In cells and extracts the contact can be indirect. Some results given as binding are weak or reduced against the parent protein; the word gives no strength. One block for each molecule: values may come before it.

Sequences of proteins named here, by UniProt entry; tags and fusion partners are left off.
UniProt P29351: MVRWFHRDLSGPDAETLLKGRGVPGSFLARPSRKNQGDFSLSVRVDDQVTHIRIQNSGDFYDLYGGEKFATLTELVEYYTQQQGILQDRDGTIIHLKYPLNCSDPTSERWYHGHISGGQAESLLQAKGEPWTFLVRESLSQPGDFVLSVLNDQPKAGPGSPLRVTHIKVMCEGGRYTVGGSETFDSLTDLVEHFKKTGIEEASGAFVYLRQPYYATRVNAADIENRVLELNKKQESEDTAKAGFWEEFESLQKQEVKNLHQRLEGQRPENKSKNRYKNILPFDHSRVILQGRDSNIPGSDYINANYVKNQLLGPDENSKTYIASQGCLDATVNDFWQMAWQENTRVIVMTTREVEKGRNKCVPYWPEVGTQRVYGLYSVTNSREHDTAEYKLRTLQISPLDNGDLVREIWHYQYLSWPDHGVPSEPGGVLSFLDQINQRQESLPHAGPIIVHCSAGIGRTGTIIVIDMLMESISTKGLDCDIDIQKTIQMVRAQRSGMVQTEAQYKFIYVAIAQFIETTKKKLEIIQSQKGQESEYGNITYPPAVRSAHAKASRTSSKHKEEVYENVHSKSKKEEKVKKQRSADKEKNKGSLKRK

Legend:
[1] = target: T1, PirB, endogenous in Hepa1c1c-7 cells (mouse (endogenous in Hepa1c1c-7)) (UniProt P97484); assay: co-IP; Hepa1c1c-7 cells stimulated with 40 nM Angptl8 for 0, 5 and 10 min; precipitated with anti-PirB antibody; blots for SHP-1, SHP-2 and phospho-tyrosine
T1 sequence (chain, tyrosine phosphorylation (sites not stated), reduced after Angptl8 treatment): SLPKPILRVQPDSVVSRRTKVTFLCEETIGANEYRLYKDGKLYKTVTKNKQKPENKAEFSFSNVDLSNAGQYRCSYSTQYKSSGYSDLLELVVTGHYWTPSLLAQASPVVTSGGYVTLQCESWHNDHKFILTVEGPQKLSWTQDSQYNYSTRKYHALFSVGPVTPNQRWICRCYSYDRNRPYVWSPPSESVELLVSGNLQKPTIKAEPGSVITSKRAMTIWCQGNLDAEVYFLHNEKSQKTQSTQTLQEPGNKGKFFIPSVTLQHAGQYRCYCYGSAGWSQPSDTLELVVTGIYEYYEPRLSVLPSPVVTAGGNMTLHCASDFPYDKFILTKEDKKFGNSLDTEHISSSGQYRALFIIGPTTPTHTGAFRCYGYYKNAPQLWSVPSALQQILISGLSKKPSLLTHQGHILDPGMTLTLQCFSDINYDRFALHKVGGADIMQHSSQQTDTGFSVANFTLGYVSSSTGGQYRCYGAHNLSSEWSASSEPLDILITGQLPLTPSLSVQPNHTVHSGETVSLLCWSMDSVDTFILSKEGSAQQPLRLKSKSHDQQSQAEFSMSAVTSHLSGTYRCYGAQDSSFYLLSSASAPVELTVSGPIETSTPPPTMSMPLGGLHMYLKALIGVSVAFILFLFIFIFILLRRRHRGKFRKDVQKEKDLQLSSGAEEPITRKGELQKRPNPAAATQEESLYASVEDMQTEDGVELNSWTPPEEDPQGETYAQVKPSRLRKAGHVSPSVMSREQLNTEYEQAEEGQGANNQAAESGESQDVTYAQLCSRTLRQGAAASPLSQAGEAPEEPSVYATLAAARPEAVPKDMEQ

[2] = target: T2, PirB (paired immunoglobulin-like receptor B), endogenous in mouse liver (mouse (endogenous in mouse liver)) (UniProt P97484); assay: co-IP; mouse liver lysates in RIPA buffer; 50 ug protein lysate with Protein-A/G agarose beads and 2 ug anti-Angptl8 or anti-PirB antibody overnight; Western blot
T2 sequence: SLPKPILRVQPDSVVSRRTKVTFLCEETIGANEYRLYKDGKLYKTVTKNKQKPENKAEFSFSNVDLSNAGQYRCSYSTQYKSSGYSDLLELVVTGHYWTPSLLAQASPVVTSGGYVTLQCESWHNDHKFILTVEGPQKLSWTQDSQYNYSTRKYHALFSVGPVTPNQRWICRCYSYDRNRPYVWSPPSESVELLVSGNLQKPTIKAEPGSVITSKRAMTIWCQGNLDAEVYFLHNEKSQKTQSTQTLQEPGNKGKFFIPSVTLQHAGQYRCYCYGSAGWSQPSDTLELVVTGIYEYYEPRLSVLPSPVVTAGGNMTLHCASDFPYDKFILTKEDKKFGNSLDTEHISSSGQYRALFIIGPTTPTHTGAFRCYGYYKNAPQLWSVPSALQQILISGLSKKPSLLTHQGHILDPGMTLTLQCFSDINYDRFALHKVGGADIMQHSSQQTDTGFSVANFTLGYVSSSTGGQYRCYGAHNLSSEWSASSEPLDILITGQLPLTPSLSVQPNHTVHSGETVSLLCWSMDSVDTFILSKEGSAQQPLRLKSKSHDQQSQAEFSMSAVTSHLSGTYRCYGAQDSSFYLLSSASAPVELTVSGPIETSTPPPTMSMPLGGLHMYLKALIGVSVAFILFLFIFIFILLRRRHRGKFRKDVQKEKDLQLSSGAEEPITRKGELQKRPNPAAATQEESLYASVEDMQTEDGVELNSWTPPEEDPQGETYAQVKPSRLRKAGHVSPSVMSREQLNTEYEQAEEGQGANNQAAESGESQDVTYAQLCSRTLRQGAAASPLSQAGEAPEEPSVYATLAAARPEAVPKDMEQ

[3] = target: T3, mouse PirB, from a transfected plasmid (PirB CDS domain) (mouse) (UniProt P97484); assay: co-IP; Hepa1c1c-7 cells cotransfected with plasmids encoding mouse Angptl8 and PirB; lysed in RIPA buffer; Protein-A/G agarose beads with anti-Angptl8 or anti-PirB antibody; Western blot
T3 sequence: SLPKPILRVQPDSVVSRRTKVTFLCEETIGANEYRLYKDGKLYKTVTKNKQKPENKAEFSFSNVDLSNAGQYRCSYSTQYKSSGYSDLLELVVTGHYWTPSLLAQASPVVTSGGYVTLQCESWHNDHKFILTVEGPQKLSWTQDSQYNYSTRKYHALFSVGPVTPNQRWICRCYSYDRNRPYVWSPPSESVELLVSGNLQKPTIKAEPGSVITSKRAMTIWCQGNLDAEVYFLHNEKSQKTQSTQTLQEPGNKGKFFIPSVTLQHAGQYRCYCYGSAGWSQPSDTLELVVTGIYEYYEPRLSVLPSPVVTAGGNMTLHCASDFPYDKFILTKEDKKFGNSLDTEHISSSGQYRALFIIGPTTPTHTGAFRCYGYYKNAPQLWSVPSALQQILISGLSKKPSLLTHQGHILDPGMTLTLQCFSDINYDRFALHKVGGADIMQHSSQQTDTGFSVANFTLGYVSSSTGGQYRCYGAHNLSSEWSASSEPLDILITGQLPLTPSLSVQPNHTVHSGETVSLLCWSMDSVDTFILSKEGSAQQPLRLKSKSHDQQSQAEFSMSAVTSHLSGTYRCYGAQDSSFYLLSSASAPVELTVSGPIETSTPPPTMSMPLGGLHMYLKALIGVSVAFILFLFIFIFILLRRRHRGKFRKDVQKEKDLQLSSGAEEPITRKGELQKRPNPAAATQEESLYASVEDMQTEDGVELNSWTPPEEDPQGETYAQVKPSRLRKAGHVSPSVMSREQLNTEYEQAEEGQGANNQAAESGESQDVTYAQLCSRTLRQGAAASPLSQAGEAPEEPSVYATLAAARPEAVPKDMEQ

binding [1]: binds
Molecule: SHP-1, endogenous in Hepa1c1c-7 cells (from UniProt P29351 1-595) (enzyme)

binding [2]: binds
B1: Angptl8 (angiopoietin-like protein 8), endogenous in mouse liver (ligand, UniProt Q8R1L8 16-198)
chain: VRPAPVAPLGGPEPAQYEELTLLFHGALQLGQALNGVYRATEARLTEAGHSLGLYDRALEFLGTEVRQGQDATQELRTSLSEIQVEEDALHLRAEATARSLGEVARAQQALRDTVRRLQVQLRGAWLGQAHQEFETLKARADKQSHLLWALTGHVQRQQREMAEQQQWLRQIQQRLHTAALPA

binding [3]: binds
B2: mouse full-length Angptl8, from a transfected plasmid (ligand, UniProt Q8R1L8 16-198)
chain: VRPAPVAPLGGPEPAQYEELTLLFHGALQLGQALNGVYRATEARLTEAGHSLGLYDRALEFLGTEVRQGQDATQELRTSLSEIQVEEDALHLRAEATARSLGEVARAQQALRDTVRRLQVQLRGAWLGQAHQEFETLKARADKQSHLLWALTGHVQRQQREMAEQQQWLRQIQQRLHTAALPA
